# Reference: the supplement of paper PMC8728848
# The other results are listed elsewhere or left out.
# B1: R2-fiber (Pseudomonas aeruginosa), Q9S576 (protein)
# chain: HHHHHHKVAKDLVVSLAYQVRTEDGVLVDESPVSAPLDYLHGHGSLISGLETALEGHEVGDKFDVAVGANDAYGQYDENLVQRVPKDVFMGVDELQVGMRFLAETDQGPVPVEITAVEDDHVVVDGNHMLAGQNLKFNVEVVAIREATEEELAHGHVHGAHDHHHDHDHDGCCGGHGHDHGHEHGGEGCCGGKGNGGCGCHENLYFQGVTAGMALAATDIPGLDASKLVSGVLAEQRLPVFARGLATAVSNSSDPNTATVPLMLTNHANGPVAGRYFYIQSMFYPDQNGNASQIATSYNATSEMYVRVSYAANPSIREWLPWQRCDIGGSFTKEADGELPGGVNLDSMVTSGWWSQSFTAQAASGANYPIVRAGLLHVYAASSNFIYQTYQAYDGESFYFRCRHSNTWFPWRRMWHGGDFNPSDYLLKSGFYWNALPGKPATFPPSAHNHDVGQLTSGILPLARGGVGSNTAAGARSTIGAGVPATASLGASGWWRDNDTGLIRQWGQVTCPADADASITFPIPFPTLCLGGYANQTSAFHPGTDASTGFRGATTTTAVIRNGYFAQAVLSWEAFGR
# Tests used:
# Test in all cases: glycan array binding signal (z-score within array); higher = stronger binding
# Details in all cases: glycan notation: IUPAC condensed, linker removed
# [1] = molecular target: Gal(b1-4)GlcNAc(b1-3)Gal(b1-4)GlcNAc(b1-2)Man(a1-3)[Gal(b1-4)GlcNAc(b1-3)Gal(b1-4)GlcNAc(b1-2)Man(a1-6)]Man(b1-4)GlcNAc(b1-4)[Fuc(a1-6)]GlcNAc
# Method in brief: (§1)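 The binding signal is a Z-score computed within each array. Data were drawn from 3228 arrays in the Consortium for Functional Glycomics database, restricted to those with a known protein sequence. Scores were averaged over arrays of the same protein sequence at different concentrations or buffers, and over linkers, and negative values can be taken as non-binding.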
# [2] = molecular target: Gal(b1-4)GlcNAc(b1-3)Gal(b1-4)GlcNAc(b1-2)[Gal(b1-4)GlcNAc(b1-3)Gal(b1-4)GlcNAc(b1-6)]Man(a1-6)[Gal(b1-4)GlcNAc(b1-3)Gal(b1-4)GlcNAc(b1-2)Man(a1-3)]Man(b1-4)GlcNAc(b1-4)GlcNAc
# Method in brief: as §1
# [3] = molecular target: Gal(b1-4)GlcNAc(b1-3)Gal(b1-4)GlcNAc(b1-2)[Gal(b1-4)GlcNAc(b1-3)Gal(b1-4)GlcNAc(b1-6)]Man(a1-6)[Gal(b1-4)GlcNAc(b1-3)Gal(b1-4)GlcNAc(b1-2)Man(a1-3)]Man(b1-4)GlcNAc(b1-4)[Fuc(a1-6)]GlcNAc
# Method in brief: as §1
# [4] = molecular target: Gal(b1-4)GlcNAc(b1-3)Gal(b1-4)GlcNAc(b1-3)Gal(b1-4)GlcNAc
# Method in brief: as §1
# [5] = molecular target: Gal(b1-4)GlcNAc(b1-3)Gal(b1-4)GlcNAc(b1-3)Gal(b1-4)GlcNAc(b1-2)Man(a1-3)[Gal(b1-4)GlcNAc(b1-3)Gal(b1-4)GlcNAc(b1-3)Gal(b1-4)GlcNAc(b1-2)Man(a1-6)]Man(b1-4)GlcNAc(b1-4)GlcNAc
# Method in brief: as §1
# [6] = molecular target: Gal(b1-4)GlcNAc(b1-3)Gal(b1-4)GlcNAc(b1-3)Gal(b1-4)GlcNAc(b1-2)Man(a1-3)[Gal(b1-4)GlcNAc(b1-3)Gal(b1-4)GlcNAc(b1-3)Gal(b1-4)GlcNAc(b1-2)Man(a1-6)]Man(b1-4)GlcNAc(b1-4)[Fuc(a1-6)]GlcNAc
# Method in brief: as §1
# [7] = molecular target: Gal(b1-4)GlcNAc(b1-3)Gal(b1-4)GlcNAc(b1-3)Gal(b1-4)GlcNAc(b1-2)[Gal(b1-4)GlcNAc(b1-3)Gal(b1-4)GlcNAc(b1-3)Gal(b1-4)GlcNAc(b1-6)]Man(a1-6)[Gal(b1-4)GlcNAc(b1-3)Gal(b1-4)GlcNAc(b1-3)Gal(b1-4)GlcNAc(b1-2)Man(a1-3)]Man(b1-4)GlcNAc(b1-4)[Fuc(a1-6)]GlcNAc
# Method in brief: as §1
# [8] = molecular target: Gal(b1-4)GlcNAc(b1-3)Gal(b1-4)GlcNAc(b1-3)Gal(b1-4)GlcNAc(b1-3)Gal(b1-4)GlcNAc(b1-2)Man(a1-3)[Gal(b1-4)GlcNAc(b1-3)Gal(b1-4)GlcNAc(b1-3)Gal(b1-4)GlcNAc(b1-3)Gal(b1-4)GlcNAc(b1-2)Man(a1-6)]Man(b1-4)GlcNAc(b1-4)GlcNAc
# Method in brief: as §1
# [9] = molecular target: Gal(b1-4)GlcNAc(b1-3)Gal(b1-4)GlcNAc(b1-3)Gal(b1-4)GlcNAc(b1-3)Gal(b1-4)GlcNAc(b1-2)Man(a1-3)[Gal(b1-4)GlcNAc(b1-3)Gal(b1-4)GlcNAc(b1-3)Gal(b1-4)GlcNAc(b1-3)Gal(b1-4)GlcNAc(b1-2)Man(a1-6)]Man(b1-4)GlcNAc(b1-4)[Fuc(a1-6)]GlcNAc
# Method in brief: as §1
# [10] = molecular target: Gal(b1-4)GlcNAc(b1-3)Gal(b1-4)GlcNAc(b1-3)Gal(b1-4)GlcNAc(b1-3)Gal(b1-4)GlcNAc(b1-2)[Gal(b1-4)GlcNAc(b1-3)Gal(b1-4)GlcNAc(b1-3)Gal(b1-4)GlcNAc(b1-3)Gal(b1-4)GlcNAc(b1-6)]Man(a1-6)[Gal(b1-4)GlcNAc(b1-3)Gal(b1-4)GlcNAc(b1-3)Gal(b1-4)GlcNAc(b1-3)Gal(b1-4)GlcNAc(b1-2)Man(a1-3)]Man(b1-4)GlcNAc(b1-4)[Fuc(a1-6)]GlcNAc
# Method in brief: as §1
# [11] = molecular target: Gal(b1-4)GlcNAc(b1-3)Gal(b1-4)GlcNAc(b1-3)Gal(b1-4)GlcNAc(b1-3)Gal(b1-4)GlcNAc(b1-3)Gal(b1-4)GlcNAc(b1-2)Man(a1-3)[Gal(b1-4)GlcNAc(b1-3)Gal(b1-4)GlcNAc(b1-3)Gal(b1-4)GlcNAc(b1-3)Gal(b1-4)GlcNAc(b1-3)Gal(b1-4)GlcNAc(b1-2)Man(a1-6)]Man(b1-4)GlcNAc(b1-4)GlcNAc
# Method in brief: as §1
# [12] = molecular target: Gal(b1-4)GlcNAc(b1-3)Gal(b1-4)GlcNAc(b1-3)Gal(b1-4)GlcNAc(b1-3)Gal(b1-4)GlcNAc(b1-3)Gal(b1-4)GlcNAc(b1-2)Man(a1-3)[Gal(b1-4)GlcNAc(b1-3)Gal(b1-4)GlcNAc(b1-3)Gal(b1-4)GlcNAc(b1-3)Gal(b1-4)GlcNAc(b1-3)Gal(b1-4)GlcNAc(b1-2)Man(a1-6)]Man(b1-4)GlcNAc(b1-4)[Fuc(a1-6)]GlcNAc
# Method in brief: as §1
# [13] = molecular target: Gal(b1-4)GlcNAc(b1-3)Gal(b1-4)GlcNAc(b1-3)Gal(b1-4)GlcNAc(b1-3)Gal(b1-4)GlcNAc(b1-3)Gal(b1-4)GlcNAc(b1-2)[Gal(b1-4)GlcNAc(b1-3)Gal(b1-4)GlcNAc(b1-3)Gal(b1-4)GlcNAc(b1-3)Gal(b1-4)GlcNAc(b1-3)Gal(b1-4)GlcNAc(b1-6)]Man(a1-6)[Gal(b1-4)GlcNAc(b1-3)Gal(b1-4)GlcNAc(b1-3)Gal(b1-4)GlcNAc(b1-3)Gal(b1-4)GlcNAc(b1-3)Gal(b1-4)GlcNAc(b1-2)Man(a1-3)]Man(b1-4)GlcNAc(b1-4)[Fuc(a1-6)]GlcNAc
# Method in brief: as §1
# [14] = molecular target: Gal(b1-4)GlcNAc(b1-3)Gal(b1-4)GlcNAc(b1-3)Gal(b1-4)GlcNAc(b1-3)Gal(b1-4)GlcNAc(b1-3)Gal(b1-4)GlcNAc(b1-3)Gal(b1-4)GlcNAc(b1-2)Man(a1-3)[Gal(b1-4)GlcNAc(b1-3)Gal(b1-4)GlcNAc(b1-3)Gal(b1-4)GlcNAc(b1-3)Gal(b1-4)GlcNAc(b1-3)Gal(b1-4)GlcNAc(b1-3)Gal(b1-4)GlcNAc(b1-2)Man(a1-6)]Man(b1-4)GlcNAc(b1-4)GlcNAc
# Method in brief: as §1
# [15] = molecular target: Gal(b1-4)GlcNAc(b1-3)Gal(b1-4)GlcNAc(b1-3)GalNAc
# Method in brief: as §1
# [16] = molecular target: Gal(b1-4)GlcNAc(b1-3)Gal(b1-4)GlcNAc(b1-3)[Gal(b1-4)GlcNAc(b1-3)Gal(b1-4)GlcNAc(b1-6)]GalNAc
# Method in brief: as §1
# [17] = molecular target: Gal(b1-4)GlcNAc(b1-3)Gal(b1-4)GlcNAc(b1-6)[Gal(b1-3)]GalNAc
# Method in brief: as §1
# [18] = molecular target: Gal(b1-4)GlcNAc(b1-3)Gal(b1-4)[Fuc(a1-3)]GlcNAc(b1-3)Gal(b1-4)[Fuc(a1-3)]GlcNAc
# Method in brief: as §1
# [19] = molecular target: Gal(b1-4)GlcNAc(b1-3)GalNAc
# Method in brief: as §1
# [20] = molecular target: Gal(b1-4)GlcNAc(b1-3)[Fuc(a1-3)GlcNAc(b1-6)]Gal(b1-4)Glc
# Method in brief: as §1
# [21] = molecular target: Gal(b1-4)GlcNAc(b1-3)[Gal(b1-4)GlcNAc(b1-6)]Gal(b1-4)GlcNAc
# Method in brief: as §1
# [22] = molecular target: Gal(b1-4)GlcNAc(b1-3)[GlcNAc(b1-6)]Gal(b1-4)GlcNAc
# Method in brief: as §1
# [23] = molecular target: Gal(b1-4)GlcNAc(b1-6)Gal(b1-4)GlcNAc
# Method in brief: as §1
# [24] = molecular target: Gal(b1-4)GlcNAc(b1-6)GalNAc
# Method in brief: as §1
# [25] = molecular target: Gal(b1-4)GlcNAc(b1-6)[Gal(b1-3)]GalNAc
# Method in brief: as §1
# [26] = molecular target: Gal(b1-4)GlcNAc(b1-6)[Gal(b1-4)GlcNAc(b1-3)]GalNAc
# Method in brief: as §1
# Gal(b1-4)GlcNAc6P = molecular target: Gal(b1-4)GlcNAc6P
# Method in brief: as §1
# Gal(b1-6)Gal = molecular target: Gal(b1-6)Gal
# Method in brief: as §1
# Gal3S(b1-3)GalNAc = molecular target: Gal3S(b1-3)GalNAc
# Method in brief: as §1
# Gal3S(b1-3)GlcNAc = molecular target: Gal3S(b1-3)GlcNAc
# Method in brief: as §1
binder,measurement,setting,value
B1,glycan array binding signal (z-score),[1],1.95
same,glycan array binding signal (z-score),[2],2.06
same,glycan array binding signal (z-score),[3],1.1
same,glycan array binding signal (z-score),[4],0.018
same,glycan array binding signal (z-score),[5],0.715
same,glycan array binding signal (z-score),[6],1.1
same,glycan array binding signal (z-score),[7],0.207
same,glycan array binding signal (z-score),[8],1.13
same,glycan array binding signal (z-score),[9],0.233
same,glycan array binding signal (z-score),[10],1.16
same,glycan array binding signal (z-score),[11],-0.158
same,glycan array binding signal (z-score),[12],1.1
same,glycan array binding signal (z-score),[13],0.259
same,glycan array binding signal (z-score),[14],0.964
same,glycan array binding signal (z-score),[15],-0.045
same,glycan array binding signal (z-score),[16],-0.271
same,glycan array binding signal (z-score),[17],-0.437
same,glycan array binding signal (z-score),[18],0.383
same,glycan array binding signal (z-score),[19],-1.43
same,glycan array binding signal (z-score),[20],0.125
same,glycan array binding signal (z-score),[21],2.03
same,glycan array binding signal (z-score),[22],-0.649
same,glycan array binding signal (z-score),[23],-0.238
same,glycan array binding signal (z-score),[24],0.918
same,glycan array binding signal (z-score),[25],-0.31
same,glycan array binding signal (z-score),[26],0.867
same,glycan array binding signal (z-score),Gal(b1-4)GlcNAc6P,-0.835
same,glycan array binding signal (z-score),Gal(b1-6)Gal,0.281
same,glycan array binding signal (z-score),Gal3S(b1-3)GalNAc,0.022
same,glycan array binding signal (z-score),Gal3S(b1-3)GlcNAc,-0.69

# Laid out differently: entries from further up.
binder | measurement | setting | value
B1 | glycan array binding signal (z-score) | [22] | -0.649
same | glycan array binding signal (z-score) | [25] | -0.31
